From PMC11189303

By UniProt entry, the sequences of proteins in these tests, tags left out.
UniProt Q86X83: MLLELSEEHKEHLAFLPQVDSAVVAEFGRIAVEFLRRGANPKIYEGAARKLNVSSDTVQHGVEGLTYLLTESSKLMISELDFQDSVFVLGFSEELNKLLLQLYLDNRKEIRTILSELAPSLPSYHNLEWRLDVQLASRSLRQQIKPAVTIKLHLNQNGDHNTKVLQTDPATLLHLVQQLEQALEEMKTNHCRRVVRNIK
UniProt Q8TCE6: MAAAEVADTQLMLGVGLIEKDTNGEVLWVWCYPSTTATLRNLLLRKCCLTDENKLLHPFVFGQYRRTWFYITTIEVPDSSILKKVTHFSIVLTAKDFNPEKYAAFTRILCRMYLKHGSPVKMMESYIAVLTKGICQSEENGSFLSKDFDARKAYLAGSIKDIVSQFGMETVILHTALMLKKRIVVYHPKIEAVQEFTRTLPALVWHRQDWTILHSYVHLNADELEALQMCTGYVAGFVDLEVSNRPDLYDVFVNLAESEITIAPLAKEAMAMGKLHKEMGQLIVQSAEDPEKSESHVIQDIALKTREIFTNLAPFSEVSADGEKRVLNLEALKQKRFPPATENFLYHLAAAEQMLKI
UniProt Q567U6: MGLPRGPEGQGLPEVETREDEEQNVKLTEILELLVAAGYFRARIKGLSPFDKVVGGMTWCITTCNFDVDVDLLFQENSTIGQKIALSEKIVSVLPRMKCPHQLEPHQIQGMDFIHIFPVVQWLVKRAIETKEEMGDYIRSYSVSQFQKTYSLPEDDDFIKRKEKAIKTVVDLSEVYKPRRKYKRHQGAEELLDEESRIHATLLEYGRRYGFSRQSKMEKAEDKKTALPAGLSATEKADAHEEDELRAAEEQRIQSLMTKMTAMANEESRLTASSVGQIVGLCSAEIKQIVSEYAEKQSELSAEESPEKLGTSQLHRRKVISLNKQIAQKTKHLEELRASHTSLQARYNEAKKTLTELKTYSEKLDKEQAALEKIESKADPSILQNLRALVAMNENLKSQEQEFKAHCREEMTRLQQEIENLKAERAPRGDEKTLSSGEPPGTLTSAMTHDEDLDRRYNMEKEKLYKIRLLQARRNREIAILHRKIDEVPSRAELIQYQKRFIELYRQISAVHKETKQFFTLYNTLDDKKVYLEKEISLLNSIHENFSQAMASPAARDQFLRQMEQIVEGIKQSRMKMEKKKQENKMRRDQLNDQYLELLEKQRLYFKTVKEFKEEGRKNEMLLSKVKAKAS
UniProt O60826: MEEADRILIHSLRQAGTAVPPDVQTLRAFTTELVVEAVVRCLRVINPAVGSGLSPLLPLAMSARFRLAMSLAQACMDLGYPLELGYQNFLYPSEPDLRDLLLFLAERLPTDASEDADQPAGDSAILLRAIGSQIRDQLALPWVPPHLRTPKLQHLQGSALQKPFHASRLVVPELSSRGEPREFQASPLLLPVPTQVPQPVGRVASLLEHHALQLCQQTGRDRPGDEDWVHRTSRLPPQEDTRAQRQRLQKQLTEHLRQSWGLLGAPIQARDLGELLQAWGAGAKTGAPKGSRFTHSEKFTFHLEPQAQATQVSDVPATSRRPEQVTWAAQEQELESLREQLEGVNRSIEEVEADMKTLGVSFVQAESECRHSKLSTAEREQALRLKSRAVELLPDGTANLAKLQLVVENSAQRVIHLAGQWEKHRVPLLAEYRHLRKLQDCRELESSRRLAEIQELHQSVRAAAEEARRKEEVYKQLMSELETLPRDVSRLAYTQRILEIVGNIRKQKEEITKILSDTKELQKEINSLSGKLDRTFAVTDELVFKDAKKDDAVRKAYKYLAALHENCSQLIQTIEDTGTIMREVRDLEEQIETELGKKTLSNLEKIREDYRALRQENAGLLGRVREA
UniProt Q9NX08: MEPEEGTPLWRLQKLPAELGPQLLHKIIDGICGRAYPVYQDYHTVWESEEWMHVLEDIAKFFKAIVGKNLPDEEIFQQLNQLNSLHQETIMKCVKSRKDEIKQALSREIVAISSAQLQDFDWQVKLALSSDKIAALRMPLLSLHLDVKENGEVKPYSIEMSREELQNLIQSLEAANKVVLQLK
UniProt Q8N668: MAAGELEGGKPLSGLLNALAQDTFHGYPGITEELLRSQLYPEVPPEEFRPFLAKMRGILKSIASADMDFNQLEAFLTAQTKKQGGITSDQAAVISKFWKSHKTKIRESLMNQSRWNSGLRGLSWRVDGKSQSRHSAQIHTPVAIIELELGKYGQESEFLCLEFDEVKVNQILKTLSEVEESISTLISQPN
UniProt Q9Y6G5: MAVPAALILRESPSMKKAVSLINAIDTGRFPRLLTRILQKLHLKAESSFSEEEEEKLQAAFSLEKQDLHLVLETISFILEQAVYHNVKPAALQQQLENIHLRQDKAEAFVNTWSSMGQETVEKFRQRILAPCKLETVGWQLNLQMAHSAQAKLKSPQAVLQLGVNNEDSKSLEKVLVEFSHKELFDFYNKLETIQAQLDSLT

Tests used:
COMMD2 (human) = COMMD2 (human) (UniProt Q86X83); assay: proximity labelling; BioID–MS: MAC-tagged (BirA*) bait in Flp-In T-REx 293, tetracycline and 50 μM biotin 24 h; lysis with 0.1% SDS and benzonase, Strep-Tactin beads; high-confidence interactions by SAINTexpress and CRAPome
VPS26C (human) = VPS26C (human) (UniProt O14972); assay: as above
COMMD9 (human) = COMMD9 (human) (UniProt Q9P000); assay: as above
VPS35L (human) = VPS35L (human) (UniProt Q7Z3J2); assay: as above
[1] = target: DENN domain-containing protein 10 (human) (UniProt Q8TCE6); assay: affinity purification with mass spectrometry; MAC-tagged bait stably expressed in Flp-In T-REx 293 (tetracycline 24 h); cleared lysate (50 mM HEPES pH 8.0, 150 mM NaCl, 0.5% IGEPAL) on Strep-Tactin beads, eluted with biotin; high-confidence interactions by SAINTexpress (BFDR < 0.05) and CRAPome against MAC-tagged GFP controls
CCDC93 (human) = CCDC93 (human) (UniProt Q567U6); assay: as above
CCDC22 (human) [2] = target: CCDC22 (human) (UniProt O60826); assay: proximity labelling; BioID–MS: MAC-tagged (BirA*) bait in Flp-In T-REx 293, tetracycline and 50 μM biotin 24 h; lysis with 0.1% SDS and benzonase, Strep-Tactin beads; high-confidence interactions by SAINTexpress and CRAPome
COMMD8 (human) = COMMD8 (human) (UniProt Q9NX08); assay: as above
CCDC22 (human) [3] = target: CCDC22 (human) (UniProt O60826); assay: affinity purification with mass spectrometry; MAC-tagged bait stably expressed in Flp-In T-REx 293 (tetracycline 24 h); cleared lysate (50 mM HEPES pH 8.0, 150 mM NaCl, 0.5% IGEPAL) on Strep-Tactin beads, eluted with biotin; high-confidence interactions by SAINTexpress (BFDR < 0.05) and CRAPome against MAC-tagged GFP controls
[4] = target: DENN domain-containing protein 10 (human) (UniProt Q8TCE6); assay: proximity labelling; BioID–MS: MAC-tagged (BirA*) bait in Flp-In T-REx 293, tetracycline and 50 μM biotin 24 h; lysis with 0.1% SDS and benzonase, Strep-Tactin beads; high-confidence interactions by SAINTexpress and CRAPome
COMMD1 (human) = COMMD1 (human) (UniProt Q8N668); assay: as above
COMMD10 (human) = COMMD10 (human) (UniProt Q9Y6G5); assay: as above

Binder | binding (COMMD2 (human)) | binding (VPS26C (human)) | binding (COMMD9 (human)) | binding (VPS35L (human)) | binding [1] | binding (CCDC93 (human)) | other results
LRRC49 (protein, UniProt Q8IUZ0 1-686) MIPGKYRSVSGRAANNVNCGLHLVIQTSSLPEKNKVEFKLNKDTSSFPGRLLQHDLERNYSSRQGDHINLVSSSLSSFPILQRSSEEKILYSDRLSLERQKLTVCPIINGEDHLRLLNFQHNFITRIQNISNLQKLISLDLYDNQIEEISGLSTLRCLRVLLLGKNRIKKISNLENLKSLDVLDLHGNQITKIENINHLCELRVLNLARNFLSHVDNLNGLDSLTELNLRHNQITFVRDVDNLPCLQHLFLSFNNISSFDSVSCLADSSSLSDITFDGNPIAQESWYKHTVLQNMMQLRQLDMKRITEEERRMASVLAKKEEEKKRESHKQSLLKEKKRLTINNVARQWDLQQQRVANIATNEDRKDSDSPQDPCQIDGSTLSAFPEETGPLDSGLNNALQGLSVIDTYLVEVDGDTLSLYGSGALESLDRNWSVQTAGMITTVSFTFIEFDEIVQVLPKLKIKFPNSLHLKFKETNLVMLQQFNALAQLRRIDQLTIDPQGNPVVNFTLWKYYVLFRLSHFSMQKINGTEVTQNDMIMAERLFGILAHVASSELPQYRLISILGDARKKQFRYLLESKGKKPGIINEENNDSKRLVGENTNRATLNYTTRDFYNEKLEEIKEKKKFCKTYIEDLVKEATEINMKNEALQKLWPQMFIELVRDAVIEIRNKNSYMKLCLQQITDQK | binds | binds | binds | binds | – | – | –
FKBP5 (protein, UniProt Q13451 1-457) MTTDEGAKNNEESPTATVAEQGEDITSKKDRGVLKIVKRVGNGEETPMIGDKVYVHYKGKLSNGKKFDSSHDRNEPFVFSLGKGQVIKAWDIGVATMKKGEICHLLCKPEYAYGSAGSLPKIPSNATLFFEIELLDFKGEDLFEDGGIIRRTKRKGEGYSNPNEGATVEIHLEGRCGGRMFDCRDVAFTVGEGEDHDIPIGIDKALEKMQREEQCILYLGPRYGFGEAGKPKFGIEPNAELIYEVTLKSFEKAKESWEMDTKEKLEQAAIVKEKGTVYFKGGKYMQAVIQYGKIVSWLEMEYGLSEKESKASESFLLAAFLNLAMCYLKLREYTKAVECCDKALGLDSANEKGLYRRGEAQLLMNEFESAKGDFEKVLEVNPQNKAARLQISMCQKKAKEHNERDRRIYANMFKKFAEQDAKEEANKAMGKKTSEGVTNEKGTDSQAMEEEKPEGHV | – | – | – | – | binds | binds | –
adaptor protein AP4E1 (protein, UniProt Q9UPM8 1-1137) MSDIVEKTLTALPGLFLQNQPGGGPAAAKASFSSRLGSLVRGITALTSKHEEEKLIQQELSSLKATVSAPTTTLKMMKECMVRLIYCEMLGYDASFGYIHAIKLAQQGNLLEKRVGYLAVSLFLHESHELLLLLVNTVVKDLQSTNLVEVCMALTVVSQIFPCEMIPAVLPLIEDKLQHSKEIVRRKAVLALYKFHLIAPNQVQHIHIKFRKALCDRDVGVMAASLHIYLRMIKENSSGYKDLTGSFVTILKQVVGGKLPVEFNYHSVPAPWLQIQLLRILGLLGKDDQRTSELMYDVLDESLRRAELNHNVTYAILFECVHTVYSIYPKSELLEKAAKCIGKFVLSPKINLKYLGLKALTYVIQQDPTLALQHQMTIIECLDHPDPIIKRETLELLYRITNAQNITVIVQKMLEYLHQSKEEYVIVNLVGKIAELAEKYAPDNAWFIQTMNAVFSVGGDVMHPDIPNNFLRLLAEGFDDETEDQQLRLYAVQSYLTLLDMENVFYPQRFLQVMSWVLGEYSYLLDKETPEEVIAKLYKLLMNDSVSSETKAWLIAAVTKLTSQAHSSNTVERLIHEFTISLDTCMRQHAFELKHLHENVELMKSLLPVDRSCEDLVVDASLSFLDGFVAEGLSQGAAPYKPPHQRQEEKLSQEKVLNFEPYGLSFSSSGFTGRQSPAGISLGSDVSGNSAETGLKETNSLKLEGIKKLWGKEGYLPKKESKTGDESGALPVPQESIMENVDQAITKKDQSQVLTQSKEEKEKQLLASSLFVGLGSESTINLLGKADTVSHKFRRKSKVKEAKSGETTSTHNMTCSSFSSLSNVAYEDDYYSNTLHDTGDKELKKFSLTSELLDSESLTELPLVEKFSYCSLSTPSLFANNNMEIFHPPQSTAASVAKESSLASSFLEETTEYIHSNAMEVCNNETISVSSYKIWKDDCLLMVWSVTNKSGLELKSADLEIFPAENFKVTEQPGCCLPVMEAESTKSFQYSVQIEKPFTEGNLTGFISYHMMDTHSAQLEFSVNLSLLDFIRPLKISSDDFGKLWLSFANDVKQNVKMSESQAALPSALKTLQQKLRLHIIEIIGNEGLLACQLLPSIPCLLHCRVHADVLALWFRSSCSTLPDYLLYQCQKVMEGS | – | – | – | – | – | – | binding (CCDC22 (human) [2]): binds; binding (COMMD8 (human)): binds

Further lines, with some results ahead:

binding (COMMD2 (human)) | binding (VPS26C (human)) | binding (COMMD9 (human)) | binding (VPS35L (human)) | binding [1] | binding (CCDC93 (human)) | Binder | other results
– | – | – | – | binds | binds | WASHC1 homolog WASH6P (protein, UniProt Q9NQA3 1-447) MAFHEMQAHKNALGTSGEQQAADITGPTPHQGGWKQVEQSRSQVQAIGEKVSLAQAKIEKIKGSKKAIKVFSSAKYPAPERLQEYGSIFTGAQDPGLQRRPRHRIQSKHRPLDERALQEKLKDFPVCVSTKPEPEDDAEEGLGGLPSNISSVSSLLLFNTTENLYKKYVFLDPLAGAVTKTHVMLGAETEEKLFDAPLSISKREQLEQQVPENYFYVPDLGQVPEIDVPSYLPDLPSIANDLMYSADLGPGIAPSAPGTIPELPTFHTEVAEPLKADLQDGVLTPPPPPPPPPPAPEVLASAPPLPPSTAAPVGQGARQDDGSSSASPSVQGAPREVVDPSGGWATLLESIRQAGGIGKAKLRSMKERKLEKKKQKEQEQVRATSQGGHLMSDLFNKLVMRRKGISGKGPGAGEGPGGAFARVSDSIPPVPPPQQPQAEEDEDDWES | binding (CCDC22 (human) [3]): binds
binds | binds | binds | binds | – | – | TPGS1 (protein, UniProt Q6ZTW0 1-290) MAAVEKRRQAVPPPAGFTDSGRQSVSRAAGAAESEEDFLRQVGVTEMLRAALLKVLEARPEEPIAFLAHYFENMGLRSPVNGGAGEPPGQLLLQQQRLGRALWHLRLAHHSQRAAFNNNVSVAYECLSAGGRRKRPGLDGRTYSELLRRICRDGQAPEEVVAPLLRKVQCRDHEAVPLSVFRAGTLTCFVLLEFVARAGALFQLLEDSAAAVADRRVGQAVLDTLEGALQASDAAAPARFLEAGSRLGPDSLALALDRAVGGRRPSAPMTREEFLERAAALFIAKVKPVG | binding [4]: binds; binding (COMMD1 (human)): binds; binding (COMMD10 (human)): binds

Results are given in words; binding and its absence hold for the method and conditions named. Binding seen in cells or lysates may run through a third protein. These calls come from enrichment with a bait or labelling near it, and not all partners need be listed.
